Patent US20180282410A1
These are yes or no findings as the source states them, for the method shown. Some binding calls cover weakened binding; strength is not graded here.

B1: 01F09 hybridoma clone (Armenian hamster IgG, supernatant) (antibody, V domains shown)
VH: QIQLQESGPGLVKPSQSLSLTCSVTGYSISSGSLWTWIRQFPGNNLEWMGYISYAGGIDYNPSLTSRISITRDTSRNQFFLQLESVTTQDTATYYCATPGGYPFHFDYWGQGTMVTVSS
VL: QPVLTQSPSASASLGASVKLTCTLNSQFSTYNIGWYQQHRDKPPKYVMFVKGDGGHSKADGIPDRFSGSSSGADRYLTISNIQAEDEAIYFCGADYNNAGQYGCVFGSGTHFTVLG
B2: 01E06 hybridoma clone (Armenian hamster IgG, supernatant) (antibody, V domains shown)
VH: EVQLVESGGGLSQPGNSLKLSCEASGFTFRNYDMSWVRQAPGKGLEWVAYISSGGGPIYYVDAVKGRFTISRDNAKNLLFLQMNNLRSEDTAVYYCARDLADIGVFDYWGQGTMVTVSS
VL: DFKMTQSPDILSPSLGESVTITCQSSQNIYSNLAWYQQKPGEHPKLLIYTASILADGIPSRFTGSGSGTQFSLKISSLQPDDVANYYCQQYVYYRTFGPGTKLEIK
B3: 01F05 hybridoma clone (Armenian hamster IgG, supernatant) (antibody, V domains shown)
VH: QVQLKQSGAELVKPGASVKISCKTSVYTFTYGYMHWVEQKPGQGLEWIGRIDPDSGNSMYNQKFQGRATLTRDKSSSTVYMELRSLTSEDSAVYYCARSMRYSGYRDYALDLWGQGTQVTVSS
VL: QLVLTQSPSASASLGASVKLTCTLSSQHSSYGITWLQQHPDKAPKYVMYLKSDGSHTKGADIPDRFSGSSSGVHRYLSISNVQPEDEAIYFCVTYDSTHVFGSGTQLTVLG

The binders below were run against murine (mu) Robo 4 ECD-PreS-Avi-His (mouse) (assay: ELISA, hybridoma supernatant on coated antigen).
For B1, the binding was “binds”. For B2, the binding was “binds”. For B3, the binding was “binds”.
